Consider one substance from publication doi:10.1101/800557.

Chains of the proteins cited; added tags and fusions are not shown. Lines headed by an entry give the natural chain unless they say otherwise; changes in a name come on top.
UniProt O95858: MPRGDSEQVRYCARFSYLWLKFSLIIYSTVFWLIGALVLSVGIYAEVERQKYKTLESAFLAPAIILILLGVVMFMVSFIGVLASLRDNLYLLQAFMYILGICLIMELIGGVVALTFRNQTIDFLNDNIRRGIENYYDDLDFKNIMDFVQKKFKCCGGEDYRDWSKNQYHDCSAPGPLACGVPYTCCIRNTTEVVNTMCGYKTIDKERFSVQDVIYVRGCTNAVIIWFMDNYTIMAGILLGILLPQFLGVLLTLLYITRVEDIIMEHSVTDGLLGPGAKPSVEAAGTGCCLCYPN
UniProt O35598: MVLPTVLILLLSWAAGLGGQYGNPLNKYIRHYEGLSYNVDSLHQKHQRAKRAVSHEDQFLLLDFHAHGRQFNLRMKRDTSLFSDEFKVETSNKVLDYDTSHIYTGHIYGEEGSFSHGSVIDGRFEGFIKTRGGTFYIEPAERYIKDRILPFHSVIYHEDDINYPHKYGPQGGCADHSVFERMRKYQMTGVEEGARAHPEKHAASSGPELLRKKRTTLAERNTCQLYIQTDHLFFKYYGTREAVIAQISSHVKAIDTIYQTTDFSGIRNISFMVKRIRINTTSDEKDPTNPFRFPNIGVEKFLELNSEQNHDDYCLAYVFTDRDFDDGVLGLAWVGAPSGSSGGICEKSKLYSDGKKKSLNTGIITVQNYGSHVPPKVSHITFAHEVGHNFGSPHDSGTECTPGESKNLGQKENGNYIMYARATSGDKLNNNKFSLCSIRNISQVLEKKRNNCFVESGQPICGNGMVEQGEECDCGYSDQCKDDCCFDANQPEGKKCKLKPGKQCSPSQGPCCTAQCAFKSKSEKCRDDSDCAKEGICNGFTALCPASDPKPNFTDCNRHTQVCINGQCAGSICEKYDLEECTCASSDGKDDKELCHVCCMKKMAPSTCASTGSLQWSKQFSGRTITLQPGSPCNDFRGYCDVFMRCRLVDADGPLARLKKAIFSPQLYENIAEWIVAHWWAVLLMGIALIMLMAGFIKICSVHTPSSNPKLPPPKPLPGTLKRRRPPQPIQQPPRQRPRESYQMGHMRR

This assay has as its target Human Tspan15 tagged at the C-terminus with the N-terminal half of superfolder GFP (human) (UniProt O95858). Briefly: split reporter.

No constants are given. Whether binding was seen depends on the method and setting. In cells and extracts the contact can be indirect. Binding calls can cover weak binding; strength is not graded here.

On to “Mouse ADAM10 tagged at the C-terminus with the C-terminal half of superfolder GFP (from UniProt O35598)”, for which the binding result is recorded as “binds”.
